Experimental data published in US6958384 (dated 2005).

Test: peptide synthesis
Settings: coupling step

With Boc-(γ-ACPC)4-OBn the step yield was 53%.
